In publication PMC9943661:
Results are given in words; binding and its absence hold for the method and conditions named. For some of these results: In cells and extracts the contact can be indirect. Some results given as binding are weak or reduced against the parent protein; the word gives no strength.

Chains of the proteins cited; added tags and fusions are not shown.
UniProt P84022: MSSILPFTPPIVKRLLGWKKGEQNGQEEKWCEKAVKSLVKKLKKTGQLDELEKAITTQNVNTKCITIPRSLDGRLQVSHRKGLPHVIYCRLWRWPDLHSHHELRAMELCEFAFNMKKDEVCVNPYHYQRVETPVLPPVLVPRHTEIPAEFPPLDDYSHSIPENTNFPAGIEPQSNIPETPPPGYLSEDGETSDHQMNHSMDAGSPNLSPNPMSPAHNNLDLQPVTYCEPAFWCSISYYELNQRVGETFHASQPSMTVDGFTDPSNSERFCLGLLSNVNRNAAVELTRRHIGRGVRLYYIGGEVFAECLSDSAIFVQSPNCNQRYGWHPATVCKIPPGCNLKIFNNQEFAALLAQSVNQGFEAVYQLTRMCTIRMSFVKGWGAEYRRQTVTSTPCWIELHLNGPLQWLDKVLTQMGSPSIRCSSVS
UniProt Q15796: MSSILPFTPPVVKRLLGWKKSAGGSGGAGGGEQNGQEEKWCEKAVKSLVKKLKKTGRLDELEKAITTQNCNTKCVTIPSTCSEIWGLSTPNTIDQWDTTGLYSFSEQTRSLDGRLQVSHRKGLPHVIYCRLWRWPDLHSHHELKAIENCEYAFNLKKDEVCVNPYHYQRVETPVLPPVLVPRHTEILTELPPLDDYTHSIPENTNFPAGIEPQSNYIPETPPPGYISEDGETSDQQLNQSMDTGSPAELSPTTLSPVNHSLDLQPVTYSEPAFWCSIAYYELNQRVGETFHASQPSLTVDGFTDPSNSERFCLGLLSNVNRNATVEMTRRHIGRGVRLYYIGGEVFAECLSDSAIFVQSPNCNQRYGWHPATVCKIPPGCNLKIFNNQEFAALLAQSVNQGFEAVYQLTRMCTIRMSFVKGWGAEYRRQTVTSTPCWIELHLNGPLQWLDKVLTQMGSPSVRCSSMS
UniProt O15527: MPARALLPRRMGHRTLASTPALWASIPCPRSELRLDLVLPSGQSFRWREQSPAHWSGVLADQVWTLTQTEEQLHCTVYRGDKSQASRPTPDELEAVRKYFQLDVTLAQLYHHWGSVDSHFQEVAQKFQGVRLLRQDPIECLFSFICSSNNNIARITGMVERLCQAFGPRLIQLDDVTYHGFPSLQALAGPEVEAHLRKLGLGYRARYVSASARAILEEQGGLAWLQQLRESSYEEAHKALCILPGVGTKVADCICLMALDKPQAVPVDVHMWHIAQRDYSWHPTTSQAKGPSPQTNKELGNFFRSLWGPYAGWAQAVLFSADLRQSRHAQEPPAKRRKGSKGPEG

Key:
His-SMAD3 = His-SMAD3 (UniProt P84022); test: pull-down; His-tagged SMADs (20 nM) held on His-tag Dynabeads; increasing concentrations of GST-OGG1 in pull-down buffer (3.25 mM sodium phosphate, 70 mM NaCl, 0.01% Tween-20), 10 min at RT; OGG1 detected by western blot; both purified
His-SMAD2 = His-SMAD2 (UniProt Q15796); test: as above
[1] = target: Flag-OGG1 (8-oxoguanine DNA glycosylase 1, ectopically expressed) (UniProt O15527); test: co-IP; nuclear lysate of Flag-OGG1 expressing hSAECs (mock or TGFβ1 treated), Benzonase digested; IP with anti-Flag and blot with anti-pSMAD3, and IP with anti-pSMAD3 and blot with anti-Flag; 4°C overnight
[2] = target: Flag-OGG1 (8-oxoguanine DNA glycosylase 1, ectopically expressed) (UniProt O15527); test: proximity ligation; Duolink in situ PLA in Flag-OGG1 expressing hSAECs, mock or TGFβ1 treated, with or without TH5487 pretreatment; anti-Flag (mouse) and anti-pSMAD3 (rabbit) primary antibodies; nuclear speckles counted

Row | binding (His-SMAD3) | binding (His-SMAD2) | binding [1] | binding [2] | Substance
1 | binds | binds |  |  | GST-OGG1 (from UniProt O15527 1-345) (enzyme)
2 |  |  | binds | binds | phosphorylated SMAD3 (pSMAD3) (from UniProt P84022 1-425)
